# Measured values as given in the supplement of paper PMC7666118.
# Sequences of proteins named here, by UniProt entry; tags and fusion partners are left off. A change or cut given only in a name is not applied to a line headed by its entry.
# UniProt P35813: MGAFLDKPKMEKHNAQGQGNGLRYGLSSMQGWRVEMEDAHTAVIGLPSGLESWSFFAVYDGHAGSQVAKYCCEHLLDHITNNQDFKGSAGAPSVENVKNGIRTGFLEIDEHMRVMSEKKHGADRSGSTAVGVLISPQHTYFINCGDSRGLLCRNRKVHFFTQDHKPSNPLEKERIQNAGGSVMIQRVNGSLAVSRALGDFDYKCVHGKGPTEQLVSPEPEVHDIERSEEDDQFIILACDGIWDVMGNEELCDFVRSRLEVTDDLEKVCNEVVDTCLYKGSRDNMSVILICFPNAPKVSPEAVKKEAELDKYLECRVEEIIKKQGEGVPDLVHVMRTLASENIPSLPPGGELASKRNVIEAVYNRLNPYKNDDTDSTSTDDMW
# UniProt Q8NCC3: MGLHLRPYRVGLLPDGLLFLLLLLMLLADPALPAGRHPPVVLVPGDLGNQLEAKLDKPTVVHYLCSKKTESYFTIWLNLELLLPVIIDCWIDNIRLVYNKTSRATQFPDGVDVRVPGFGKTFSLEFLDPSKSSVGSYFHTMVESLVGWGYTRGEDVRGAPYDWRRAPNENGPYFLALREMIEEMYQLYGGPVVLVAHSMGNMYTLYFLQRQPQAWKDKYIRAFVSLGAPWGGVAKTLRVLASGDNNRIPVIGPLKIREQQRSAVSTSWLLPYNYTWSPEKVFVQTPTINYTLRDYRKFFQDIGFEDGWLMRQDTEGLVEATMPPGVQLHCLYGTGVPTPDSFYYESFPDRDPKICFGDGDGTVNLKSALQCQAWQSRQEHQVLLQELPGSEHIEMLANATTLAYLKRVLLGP
# UniProt Q9H8W4: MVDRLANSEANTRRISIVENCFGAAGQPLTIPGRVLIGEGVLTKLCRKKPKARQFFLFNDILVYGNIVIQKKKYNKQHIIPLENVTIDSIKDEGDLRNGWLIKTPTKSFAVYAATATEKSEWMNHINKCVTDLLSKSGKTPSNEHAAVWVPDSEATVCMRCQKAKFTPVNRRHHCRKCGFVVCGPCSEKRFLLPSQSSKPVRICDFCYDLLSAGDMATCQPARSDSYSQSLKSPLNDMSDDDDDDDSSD
# UniProt Q9UL42: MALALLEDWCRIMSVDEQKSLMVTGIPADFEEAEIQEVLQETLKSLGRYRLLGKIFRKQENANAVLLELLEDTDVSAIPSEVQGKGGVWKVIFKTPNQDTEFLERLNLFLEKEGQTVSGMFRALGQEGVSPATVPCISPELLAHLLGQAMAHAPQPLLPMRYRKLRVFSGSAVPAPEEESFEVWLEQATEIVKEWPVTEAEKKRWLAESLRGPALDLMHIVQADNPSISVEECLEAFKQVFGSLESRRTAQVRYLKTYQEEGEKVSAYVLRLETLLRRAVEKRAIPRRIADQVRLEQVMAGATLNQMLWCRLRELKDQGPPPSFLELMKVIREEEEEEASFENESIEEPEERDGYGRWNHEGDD
# UniProt Q5MIZ7: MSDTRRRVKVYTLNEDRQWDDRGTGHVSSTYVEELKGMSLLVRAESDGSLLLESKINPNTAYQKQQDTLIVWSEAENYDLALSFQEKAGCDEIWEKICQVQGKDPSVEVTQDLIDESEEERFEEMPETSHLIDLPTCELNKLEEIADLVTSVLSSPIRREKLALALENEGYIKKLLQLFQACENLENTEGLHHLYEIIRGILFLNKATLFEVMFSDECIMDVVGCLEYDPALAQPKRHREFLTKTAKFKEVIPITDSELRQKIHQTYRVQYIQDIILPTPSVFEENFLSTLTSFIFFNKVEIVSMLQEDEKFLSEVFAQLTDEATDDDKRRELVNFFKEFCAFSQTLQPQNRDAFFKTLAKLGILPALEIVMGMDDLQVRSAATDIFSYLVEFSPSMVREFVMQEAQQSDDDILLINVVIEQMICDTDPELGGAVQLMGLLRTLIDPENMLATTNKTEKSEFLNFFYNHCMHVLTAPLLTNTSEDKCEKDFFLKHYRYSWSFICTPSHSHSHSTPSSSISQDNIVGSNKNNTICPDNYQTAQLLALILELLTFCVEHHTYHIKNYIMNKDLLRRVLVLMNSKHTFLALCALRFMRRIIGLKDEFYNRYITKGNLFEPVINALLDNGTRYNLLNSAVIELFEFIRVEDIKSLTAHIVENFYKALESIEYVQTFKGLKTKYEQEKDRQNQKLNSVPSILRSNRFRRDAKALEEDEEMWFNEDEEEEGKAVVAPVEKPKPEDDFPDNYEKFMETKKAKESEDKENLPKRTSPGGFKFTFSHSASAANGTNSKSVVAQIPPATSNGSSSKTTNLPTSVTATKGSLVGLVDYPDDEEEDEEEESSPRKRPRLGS
# UniProt Q13162: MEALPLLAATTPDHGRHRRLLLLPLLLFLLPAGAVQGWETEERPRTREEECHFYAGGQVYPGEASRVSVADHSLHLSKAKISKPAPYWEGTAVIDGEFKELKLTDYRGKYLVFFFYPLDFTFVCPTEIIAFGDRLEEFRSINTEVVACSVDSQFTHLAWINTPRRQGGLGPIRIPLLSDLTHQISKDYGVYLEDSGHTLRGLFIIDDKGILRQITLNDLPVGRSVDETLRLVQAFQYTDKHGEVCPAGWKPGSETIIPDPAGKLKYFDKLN
# UniProt Q9Y244: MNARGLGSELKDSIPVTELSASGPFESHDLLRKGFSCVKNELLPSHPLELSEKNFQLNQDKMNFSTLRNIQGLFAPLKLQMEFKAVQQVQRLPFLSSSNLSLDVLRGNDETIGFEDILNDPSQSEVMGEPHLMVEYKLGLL
# UniProt O15305: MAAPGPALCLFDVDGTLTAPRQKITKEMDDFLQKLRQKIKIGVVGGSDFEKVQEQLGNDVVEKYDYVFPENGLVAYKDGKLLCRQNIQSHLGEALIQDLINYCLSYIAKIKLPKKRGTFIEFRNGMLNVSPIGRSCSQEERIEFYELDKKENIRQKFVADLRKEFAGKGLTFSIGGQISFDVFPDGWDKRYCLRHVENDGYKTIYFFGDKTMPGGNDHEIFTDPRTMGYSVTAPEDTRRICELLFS
# UniProt Q96HC4: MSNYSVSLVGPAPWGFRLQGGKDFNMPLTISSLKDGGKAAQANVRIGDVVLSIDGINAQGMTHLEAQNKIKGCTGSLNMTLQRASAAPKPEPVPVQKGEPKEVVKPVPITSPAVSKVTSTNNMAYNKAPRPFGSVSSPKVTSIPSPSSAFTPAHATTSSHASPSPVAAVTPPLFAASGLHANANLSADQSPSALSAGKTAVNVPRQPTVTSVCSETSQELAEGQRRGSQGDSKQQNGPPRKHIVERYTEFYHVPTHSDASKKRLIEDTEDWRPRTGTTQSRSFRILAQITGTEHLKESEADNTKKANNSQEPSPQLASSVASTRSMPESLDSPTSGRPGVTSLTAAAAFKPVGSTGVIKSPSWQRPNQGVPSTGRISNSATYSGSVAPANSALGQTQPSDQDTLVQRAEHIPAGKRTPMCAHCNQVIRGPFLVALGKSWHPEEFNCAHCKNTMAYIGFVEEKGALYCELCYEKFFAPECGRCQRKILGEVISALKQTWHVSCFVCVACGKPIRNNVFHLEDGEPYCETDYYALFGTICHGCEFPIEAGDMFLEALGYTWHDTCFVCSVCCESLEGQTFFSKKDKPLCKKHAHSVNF
# UniProt P49593: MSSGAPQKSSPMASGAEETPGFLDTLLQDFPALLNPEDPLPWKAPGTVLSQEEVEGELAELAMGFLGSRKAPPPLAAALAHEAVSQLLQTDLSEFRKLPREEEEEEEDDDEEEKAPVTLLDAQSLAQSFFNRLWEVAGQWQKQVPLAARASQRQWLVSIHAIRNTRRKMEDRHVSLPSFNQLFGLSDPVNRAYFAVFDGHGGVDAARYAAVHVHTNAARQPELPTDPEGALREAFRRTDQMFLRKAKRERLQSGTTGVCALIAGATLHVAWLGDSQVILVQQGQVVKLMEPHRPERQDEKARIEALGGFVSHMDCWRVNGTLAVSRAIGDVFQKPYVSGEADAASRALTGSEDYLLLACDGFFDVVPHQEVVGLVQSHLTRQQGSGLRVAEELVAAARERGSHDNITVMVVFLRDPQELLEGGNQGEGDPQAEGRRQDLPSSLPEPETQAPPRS
# UniProt Q15366, whole entry: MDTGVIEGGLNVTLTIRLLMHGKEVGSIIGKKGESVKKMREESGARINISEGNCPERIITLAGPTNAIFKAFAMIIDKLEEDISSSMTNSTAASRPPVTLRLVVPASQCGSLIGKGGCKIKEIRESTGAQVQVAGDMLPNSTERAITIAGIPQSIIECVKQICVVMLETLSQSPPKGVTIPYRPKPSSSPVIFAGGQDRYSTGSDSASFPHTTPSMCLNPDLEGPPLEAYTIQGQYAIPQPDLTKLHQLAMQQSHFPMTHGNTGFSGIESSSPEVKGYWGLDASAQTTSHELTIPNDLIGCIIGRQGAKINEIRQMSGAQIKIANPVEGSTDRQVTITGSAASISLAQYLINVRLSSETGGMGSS
# UniProt Q96GD0: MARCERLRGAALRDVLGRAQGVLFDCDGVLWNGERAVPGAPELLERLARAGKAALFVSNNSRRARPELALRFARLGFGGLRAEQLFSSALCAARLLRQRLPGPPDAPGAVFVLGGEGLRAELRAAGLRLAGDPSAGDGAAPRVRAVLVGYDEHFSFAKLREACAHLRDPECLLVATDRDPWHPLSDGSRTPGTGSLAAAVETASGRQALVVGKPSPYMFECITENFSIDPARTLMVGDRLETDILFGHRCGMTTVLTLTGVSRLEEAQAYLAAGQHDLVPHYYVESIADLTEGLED
# UniProt P30048: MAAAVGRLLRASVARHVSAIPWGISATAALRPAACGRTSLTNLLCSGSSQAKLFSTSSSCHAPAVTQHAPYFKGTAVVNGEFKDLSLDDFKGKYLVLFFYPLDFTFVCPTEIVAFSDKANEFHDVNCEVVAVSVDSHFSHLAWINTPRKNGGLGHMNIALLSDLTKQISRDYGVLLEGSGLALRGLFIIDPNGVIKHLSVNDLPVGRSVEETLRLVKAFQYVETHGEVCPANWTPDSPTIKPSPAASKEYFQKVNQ
# UniProt Q6PCE3: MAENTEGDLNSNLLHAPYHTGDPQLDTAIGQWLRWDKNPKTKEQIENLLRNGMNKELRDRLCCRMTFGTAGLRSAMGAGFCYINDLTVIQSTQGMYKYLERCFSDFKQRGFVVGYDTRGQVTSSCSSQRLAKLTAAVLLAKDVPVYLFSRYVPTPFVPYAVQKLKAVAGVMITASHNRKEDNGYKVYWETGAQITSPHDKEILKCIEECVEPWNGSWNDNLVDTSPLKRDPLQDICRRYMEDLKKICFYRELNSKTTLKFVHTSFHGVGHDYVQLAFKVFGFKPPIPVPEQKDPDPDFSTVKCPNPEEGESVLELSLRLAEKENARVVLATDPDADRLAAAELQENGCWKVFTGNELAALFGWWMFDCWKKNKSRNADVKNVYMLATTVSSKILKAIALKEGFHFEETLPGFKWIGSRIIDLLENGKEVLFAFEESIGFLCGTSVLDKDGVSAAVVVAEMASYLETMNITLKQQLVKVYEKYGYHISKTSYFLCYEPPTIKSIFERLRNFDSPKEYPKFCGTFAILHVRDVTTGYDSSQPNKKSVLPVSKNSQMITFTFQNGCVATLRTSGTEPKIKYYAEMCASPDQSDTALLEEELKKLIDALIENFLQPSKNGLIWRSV
# UniProt Q16875: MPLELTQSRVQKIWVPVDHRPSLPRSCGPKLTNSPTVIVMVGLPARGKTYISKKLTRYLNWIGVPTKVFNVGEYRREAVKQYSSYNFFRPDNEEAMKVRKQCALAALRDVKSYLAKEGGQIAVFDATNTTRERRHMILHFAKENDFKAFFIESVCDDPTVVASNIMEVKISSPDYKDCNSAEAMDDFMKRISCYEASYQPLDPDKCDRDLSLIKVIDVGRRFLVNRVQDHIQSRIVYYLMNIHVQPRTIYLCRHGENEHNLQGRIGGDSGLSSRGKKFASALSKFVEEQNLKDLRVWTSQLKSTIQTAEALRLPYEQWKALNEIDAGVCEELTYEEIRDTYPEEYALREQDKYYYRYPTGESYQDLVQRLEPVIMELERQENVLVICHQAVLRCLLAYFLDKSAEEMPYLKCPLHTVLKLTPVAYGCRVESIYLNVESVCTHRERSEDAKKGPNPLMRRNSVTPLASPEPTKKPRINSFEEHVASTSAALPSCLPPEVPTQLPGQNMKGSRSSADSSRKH
# UniProt Q9NWS0, whole entry: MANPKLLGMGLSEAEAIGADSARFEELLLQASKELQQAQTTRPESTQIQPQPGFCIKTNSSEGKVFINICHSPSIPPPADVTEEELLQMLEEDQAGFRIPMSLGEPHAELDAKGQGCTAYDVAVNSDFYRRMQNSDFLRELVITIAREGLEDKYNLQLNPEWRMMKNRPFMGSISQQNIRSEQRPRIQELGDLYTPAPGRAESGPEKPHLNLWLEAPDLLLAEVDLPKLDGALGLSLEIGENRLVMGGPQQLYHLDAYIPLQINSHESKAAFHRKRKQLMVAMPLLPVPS
# UniProt Q92871: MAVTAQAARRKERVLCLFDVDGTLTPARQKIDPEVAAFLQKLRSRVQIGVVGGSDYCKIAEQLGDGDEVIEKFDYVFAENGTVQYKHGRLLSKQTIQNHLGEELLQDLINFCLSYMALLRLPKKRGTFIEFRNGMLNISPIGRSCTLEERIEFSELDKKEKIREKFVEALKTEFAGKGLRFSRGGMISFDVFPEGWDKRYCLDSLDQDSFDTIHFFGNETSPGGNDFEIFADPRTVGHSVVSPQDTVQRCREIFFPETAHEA
# The other results are listed elsewhere or left out.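 The calls were made as follows: active = dose-dependent thermal stabilisation significant by F-test of dose-response against flat model at 10% FDR; inactive = not significant.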
# Compound: Nc1nc2c(ncn2[C@@H]2O[C@H](COP(=O)(O)OP(=O)(O)OP(=O)(O)O)[C@@H](O)[C@H]2O)c(=O)[nH]1
# Assay: dose-dependent thermal stabilisation call (2D-TPP, DLPTP, 10% FDR) (binary (1 = stabilised)); higher = stabilised by the compound
# Settings: system: Jurkat gel-filtered lysate; concentration range 1-500 µM
# Experimental: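 2D thermal proteome profiling in gel-filtered Jurkat E6.1 lysate (2 mg/ml) treated with NaGTP (0, 1, 10, 100, 500 uM) for 10 min at room temperature, then heated 3 min at one of 12 temperatures (42-63.9 C). Soluble protein was quantified by TMT10 MS. The value is the DLPTP call of the paper: dose-dependent thermal stabilisation over all temperatures at 10% FDR (F-test of a dose-response against a flat model); one experiment, one call per tested protein.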
row,Target,dose-dependent thermal stabilisation call
1,PPP2R5C (UniProt Q13362),inactive: 0
2,PGPEP1 (UniProt Q9NXJ5),inactive: 0
3,PHF3 (UniProt Q92576),inactive: 0
4,PPP2R2A (UniProt P63151),inactive: 0
5,PPM1A (UniProt P35813),inactive: 0
6,PLA2G15 (UniProt Q8NCC3),inactive: 0
7,PLEKHF2 (UniProt Q9H8W4),active: 1
8,PPRC1 (UniProt Q5VV67),inactive: 0
9,PNMA2 (UniProt Q9UL42),inactive: 0
10,PPP4R3B (UniProt Q5MIZ7),inactive: 0
11,PRDX4 (UniProt Q13162),inactive: 0
12,POGLUT1 (UniProt Q8NBL1),inactive: 0
13,POMP (UniProt Q9Y244),inactive: 0
14,PHYKPL (UniProt Q8IUZ5),inactive: 0
15,POLG2 (UniProt Q9UHN1),inactive: 0
16,POLR3D (UniProt P05423),inactive: 0
17,PMM2 (UniProt O15305),inactive: 0
18,PPP2R2D (UniProt Q66LE6),inactive: 0
19,POFUT1 (UniProt Q9H488),inactive: 0
20,PDLIM5 (UniProt Q96HC4),inactive: 0

row,Target,dose-dependent thermal stabilisation call
1,PPM1F (UniProt P49593),inactive: 0
2,PIK3CA (UniProt P42336),inactive: 0
3,PCBP2 (UniProt Q15366),inactive: 0
4,PDXP (UniProt Q96GD0),inactive: 0
5,PPP2R1B (UniProt P30154),inactive: 0
6,PLCB1 (UniProt Q9NQ66),active: 1
7,POLE (UniProt Q07864),inactive: 0
8,PCIF1 (UniProt Q9H4Z3),active: 1
9,PRDX3 (UniProt P30048),inactive: 0
10,PCF11 (UniProt O94913),inactive: 0
11,POLR2M (UniProt P0CAP2),inactive: 0
12,PIN4 (UniProt Q9Y237),inactive: 0
13,PGM2L1 (UniProt Q6PCE3),inactive: 0
14,PFKFB3 (UniProt Q16875),inactive: 0
15,PPP4C (UniProt P60510),inactive: 0
16,PCID2 (UniProt Q5JVF3),active: 1
17,PFDN5 (UniProt Q99471),inactive: 0
18,PIH1D1 (UniProt Q9NWS0),inactive: 0
19,PMM1 (UniProt Q92871),inactive: 0
20,PLEKHA1 (UniProt Q9HB21),active: 1

# Three entries picked at random from the list so far, as already listed:
row,Target,dose-dependent thermal stabilisation call
2,PGPEP1 (UniProt Q9NXJ5),inactive: 0
20,PDLIM5 (UniProt Q96HC4),inactive: 0
15,PPP4C (UniProt P60510),inactive: 0
